Results published in the supplement of paper PMC12819154, “High-throughput peptide-centric local stability assay extends protein–ligand identification to membrane proteins, tissues and bacteria” (Nature Structural & Molecular Biology, 2025).
The list shows a part of the results. Most values lie at the level of the controls, where differences are scatter.

Amino acid sequences for entries named in this document (tags omitted). A change or cut given only in a name is not applied to a line headed by its entry.
UniProt Q9BVV6: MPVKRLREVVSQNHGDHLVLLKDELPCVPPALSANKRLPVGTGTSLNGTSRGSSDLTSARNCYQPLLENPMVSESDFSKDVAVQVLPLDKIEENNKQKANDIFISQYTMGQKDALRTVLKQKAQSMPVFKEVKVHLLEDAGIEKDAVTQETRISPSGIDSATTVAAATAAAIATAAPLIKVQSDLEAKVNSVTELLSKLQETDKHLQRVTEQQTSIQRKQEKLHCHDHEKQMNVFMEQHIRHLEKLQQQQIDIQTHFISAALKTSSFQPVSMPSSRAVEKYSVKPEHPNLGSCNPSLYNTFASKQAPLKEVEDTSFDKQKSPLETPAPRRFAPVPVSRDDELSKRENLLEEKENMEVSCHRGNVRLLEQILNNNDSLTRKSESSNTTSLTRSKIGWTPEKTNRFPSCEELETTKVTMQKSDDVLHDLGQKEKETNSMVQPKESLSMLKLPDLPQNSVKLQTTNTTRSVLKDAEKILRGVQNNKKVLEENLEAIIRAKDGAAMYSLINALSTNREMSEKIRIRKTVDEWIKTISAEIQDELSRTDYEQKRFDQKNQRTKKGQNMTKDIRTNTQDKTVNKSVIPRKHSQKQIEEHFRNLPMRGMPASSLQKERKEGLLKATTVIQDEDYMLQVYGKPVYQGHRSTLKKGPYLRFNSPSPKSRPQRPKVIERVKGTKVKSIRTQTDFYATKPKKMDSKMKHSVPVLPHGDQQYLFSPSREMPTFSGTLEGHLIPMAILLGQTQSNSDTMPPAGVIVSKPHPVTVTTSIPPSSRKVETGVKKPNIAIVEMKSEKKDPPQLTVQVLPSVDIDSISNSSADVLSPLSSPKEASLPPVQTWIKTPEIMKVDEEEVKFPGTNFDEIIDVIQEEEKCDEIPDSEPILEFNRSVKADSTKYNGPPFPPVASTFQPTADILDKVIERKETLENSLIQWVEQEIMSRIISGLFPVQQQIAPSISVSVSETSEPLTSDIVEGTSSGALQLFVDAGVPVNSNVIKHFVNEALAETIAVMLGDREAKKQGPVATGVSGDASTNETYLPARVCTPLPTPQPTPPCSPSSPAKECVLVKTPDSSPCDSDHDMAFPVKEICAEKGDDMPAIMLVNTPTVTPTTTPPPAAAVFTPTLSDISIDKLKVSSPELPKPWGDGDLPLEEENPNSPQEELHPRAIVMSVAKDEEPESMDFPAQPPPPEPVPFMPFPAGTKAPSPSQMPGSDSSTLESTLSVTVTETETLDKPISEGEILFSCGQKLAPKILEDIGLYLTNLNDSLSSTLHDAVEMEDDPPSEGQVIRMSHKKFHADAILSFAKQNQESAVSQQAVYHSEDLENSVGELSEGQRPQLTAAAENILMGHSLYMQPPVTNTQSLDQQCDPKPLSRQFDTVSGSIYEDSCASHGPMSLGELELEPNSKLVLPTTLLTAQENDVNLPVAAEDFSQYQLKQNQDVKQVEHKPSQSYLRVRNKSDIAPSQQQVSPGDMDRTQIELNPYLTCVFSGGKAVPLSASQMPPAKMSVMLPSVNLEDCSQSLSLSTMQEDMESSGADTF
UniProt Q9BV38: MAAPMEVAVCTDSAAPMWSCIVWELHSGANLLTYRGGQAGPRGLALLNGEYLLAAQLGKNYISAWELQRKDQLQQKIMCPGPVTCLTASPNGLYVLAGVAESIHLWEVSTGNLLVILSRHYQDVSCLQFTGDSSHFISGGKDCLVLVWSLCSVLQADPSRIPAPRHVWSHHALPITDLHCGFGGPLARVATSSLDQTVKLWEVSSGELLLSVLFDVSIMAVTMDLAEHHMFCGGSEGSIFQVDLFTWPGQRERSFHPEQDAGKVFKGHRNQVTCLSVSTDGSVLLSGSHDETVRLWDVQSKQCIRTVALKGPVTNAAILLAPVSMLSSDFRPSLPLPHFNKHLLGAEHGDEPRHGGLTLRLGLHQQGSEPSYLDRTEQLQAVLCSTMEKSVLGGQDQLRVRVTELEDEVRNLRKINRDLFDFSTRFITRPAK
UniProt Q9BXK5, whole entry: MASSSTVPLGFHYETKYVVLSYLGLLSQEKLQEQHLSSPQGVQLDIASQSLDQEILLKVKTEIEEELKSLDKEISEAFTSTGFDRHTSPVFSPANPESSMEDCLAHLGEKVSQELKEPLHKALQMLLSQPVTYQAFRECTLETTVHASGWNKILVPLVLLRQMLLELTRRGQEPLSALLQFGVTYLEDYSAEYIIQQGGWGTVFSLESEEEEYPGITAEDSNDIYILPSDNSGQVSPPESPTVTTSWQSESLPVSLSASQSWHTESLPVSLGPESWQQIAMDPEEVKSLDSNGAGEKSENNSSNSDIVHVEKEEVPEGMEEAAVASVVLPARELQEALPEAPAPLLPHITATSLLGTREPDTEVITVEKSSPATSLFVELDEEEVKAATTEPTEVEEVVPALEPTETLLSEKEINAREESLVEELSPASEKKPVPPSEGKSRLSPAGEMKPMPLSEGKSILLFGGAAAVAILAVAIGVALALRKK
UniProt Q9BZV1: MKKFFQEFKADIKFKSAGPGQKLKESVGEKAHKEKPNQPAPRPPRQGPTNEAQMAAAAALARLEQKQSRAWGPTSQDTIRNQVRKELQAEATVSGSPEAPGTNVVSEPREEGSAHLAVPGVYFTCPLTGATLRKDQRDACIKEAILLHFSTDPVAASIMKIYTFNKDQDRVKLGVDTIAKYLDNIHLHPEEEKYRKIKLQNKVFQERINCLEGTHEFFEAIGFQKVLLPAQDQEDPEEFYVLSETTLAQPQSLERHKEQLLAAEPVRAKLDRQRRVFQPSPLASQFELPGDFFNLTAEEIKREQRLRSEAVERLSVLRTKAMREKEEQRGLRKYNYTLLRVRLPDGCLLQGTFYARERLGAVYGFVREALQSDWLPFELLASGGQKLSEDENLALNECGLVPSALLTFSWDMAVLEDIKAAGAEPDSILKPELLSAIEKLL
UniProt Q9GZX9: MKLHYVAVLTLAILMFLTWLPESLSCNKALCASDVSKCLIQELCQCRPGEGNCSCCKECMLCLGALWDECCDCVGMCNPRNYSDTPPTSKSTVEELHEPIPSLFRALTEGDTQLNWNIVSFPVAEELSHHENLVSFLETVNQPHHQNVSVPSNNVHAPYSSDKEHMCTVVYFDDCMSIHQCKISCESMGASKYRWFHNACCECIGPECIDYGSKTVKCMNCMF
UniProt Q9BX63: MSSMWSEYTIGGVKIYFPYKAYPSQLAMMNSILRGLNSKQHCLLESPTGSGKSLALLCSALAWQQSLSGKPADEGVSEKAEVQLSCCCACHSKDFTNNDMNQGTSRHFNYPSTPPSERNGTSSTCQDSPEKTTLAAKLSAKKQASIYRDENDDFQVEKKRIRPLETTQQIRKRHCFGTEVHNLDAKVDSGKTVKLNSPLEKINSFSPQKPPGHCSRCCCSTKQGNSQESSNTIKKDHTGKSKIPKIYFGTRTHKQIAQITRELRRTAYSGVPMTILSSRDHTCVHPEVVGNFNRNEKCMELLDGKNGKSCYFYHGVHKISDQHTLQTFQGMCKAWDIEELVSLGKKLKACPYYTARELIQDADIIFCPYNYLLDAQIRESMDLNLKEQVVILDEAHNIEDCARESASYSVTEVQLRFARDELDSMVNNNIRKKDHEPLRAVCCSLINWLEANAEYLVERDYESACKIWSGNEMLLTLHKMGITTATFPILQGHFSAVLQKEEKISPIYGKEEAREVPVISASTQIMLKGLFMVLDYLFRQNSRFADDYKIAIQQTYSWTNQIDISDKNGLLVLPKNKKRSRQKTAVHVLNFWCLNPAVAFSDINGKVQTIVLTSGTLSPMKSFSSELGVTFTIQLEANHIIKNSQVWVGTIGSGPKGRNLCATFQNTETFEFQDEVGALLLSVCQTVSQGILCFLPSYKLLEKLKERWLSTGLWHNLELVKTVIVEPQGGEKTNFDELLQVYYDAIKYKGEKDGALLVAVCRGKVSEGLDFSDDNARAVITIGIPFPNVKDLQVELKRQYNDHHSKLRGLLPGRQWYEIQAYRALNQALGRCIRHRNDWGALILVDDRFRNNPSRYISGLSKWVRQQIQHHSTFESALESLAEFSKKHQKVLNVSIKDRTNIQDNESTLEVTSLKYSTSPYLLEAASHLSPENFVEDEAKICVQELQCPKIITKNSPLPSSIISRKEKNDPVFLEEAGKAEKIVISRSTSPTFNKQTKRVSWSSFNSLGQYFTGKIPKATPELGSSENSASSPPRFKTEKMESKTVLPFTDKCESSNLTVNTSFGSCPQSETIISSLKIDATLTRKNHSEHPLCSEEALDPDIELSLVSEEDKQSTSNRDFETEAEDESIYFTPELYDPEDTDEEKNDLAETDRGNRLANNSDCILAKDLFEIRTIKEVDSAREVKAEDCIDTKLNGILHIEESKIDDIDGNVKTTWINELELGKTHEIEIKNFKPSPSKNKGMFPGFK
UniProt Q9BXI6: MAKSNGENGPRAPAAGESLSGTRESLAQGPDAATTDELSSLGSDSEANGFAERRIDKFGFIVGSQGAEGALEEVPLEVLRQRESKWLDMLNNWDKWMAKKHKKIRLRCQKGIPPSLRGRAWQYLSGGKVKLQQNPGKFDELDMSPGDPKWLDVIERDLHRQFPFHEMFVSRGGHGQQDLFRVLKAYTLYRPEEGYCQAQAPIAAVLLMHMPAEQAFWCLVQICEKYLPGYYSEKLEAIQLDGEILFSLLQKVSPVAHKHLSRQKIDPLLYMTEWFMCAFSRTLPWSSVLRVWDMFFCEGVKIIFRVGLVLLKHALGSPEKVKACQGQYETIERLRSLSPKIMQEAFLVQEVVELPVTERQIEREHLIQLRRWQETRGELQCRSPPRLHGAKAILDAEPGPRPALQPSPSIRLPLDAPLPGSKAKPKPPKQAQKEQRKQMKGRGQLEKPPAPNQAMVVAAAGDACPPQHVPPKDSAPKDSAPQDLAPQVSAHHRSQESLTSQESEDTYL
UniProt Q9BV19: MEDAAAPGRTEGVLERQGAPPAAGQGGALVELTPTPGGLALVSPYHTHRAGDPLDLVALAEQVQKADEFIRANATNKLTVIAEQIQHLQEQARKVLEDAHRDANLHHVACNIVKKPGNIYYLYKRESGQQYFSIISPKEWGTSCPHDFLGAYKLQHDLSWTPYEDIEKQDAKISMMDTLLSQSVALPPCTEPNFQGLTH
UniProt Q9BZZ5: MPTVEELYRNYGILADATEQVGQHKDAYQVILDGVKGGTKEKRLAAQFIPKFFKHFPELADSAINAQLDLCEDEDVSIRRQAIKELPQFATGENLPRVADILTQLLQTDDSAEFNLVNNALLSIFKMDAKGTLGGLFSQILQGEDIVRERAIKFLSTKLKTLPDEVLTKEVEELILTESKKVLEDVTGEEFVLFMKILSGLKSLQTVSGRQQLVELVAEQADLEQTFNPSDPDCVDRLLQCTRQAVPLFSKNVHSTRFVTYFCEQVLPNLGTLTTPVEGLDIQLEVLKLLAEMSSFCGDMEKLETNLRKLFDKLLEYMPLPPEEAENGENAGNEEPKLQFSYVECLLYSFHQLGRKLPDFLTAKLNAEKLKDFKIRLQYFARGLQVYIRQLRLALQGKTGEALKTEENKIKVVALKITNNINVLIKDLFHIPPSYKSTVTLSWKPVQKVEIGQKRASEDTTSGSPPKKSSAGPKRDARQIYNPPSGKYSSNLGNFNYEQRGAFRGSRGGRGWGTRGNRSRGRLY
UniProt Q9BX95: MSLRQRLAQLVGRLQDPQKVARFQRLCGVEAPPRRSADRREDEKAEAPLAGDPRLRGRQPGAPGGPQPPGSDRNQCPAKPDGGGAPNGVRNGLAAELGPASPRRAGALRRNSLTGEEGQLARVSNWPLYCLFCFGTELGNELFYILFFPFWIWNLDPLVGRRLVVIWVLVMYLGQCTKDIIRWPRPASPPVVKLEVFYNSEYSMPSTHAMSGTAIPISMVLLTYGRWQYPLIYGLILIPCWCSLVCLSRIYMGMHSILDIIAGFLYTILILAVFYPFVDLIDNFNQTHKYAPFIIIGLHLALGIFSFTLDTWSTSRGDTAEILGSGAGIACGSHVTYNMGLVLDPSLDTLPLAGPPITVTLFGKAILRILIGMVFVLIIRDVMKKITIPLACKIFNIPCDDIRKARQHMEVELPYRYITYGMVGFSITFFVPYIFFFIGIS
UniProt Q9BWV3: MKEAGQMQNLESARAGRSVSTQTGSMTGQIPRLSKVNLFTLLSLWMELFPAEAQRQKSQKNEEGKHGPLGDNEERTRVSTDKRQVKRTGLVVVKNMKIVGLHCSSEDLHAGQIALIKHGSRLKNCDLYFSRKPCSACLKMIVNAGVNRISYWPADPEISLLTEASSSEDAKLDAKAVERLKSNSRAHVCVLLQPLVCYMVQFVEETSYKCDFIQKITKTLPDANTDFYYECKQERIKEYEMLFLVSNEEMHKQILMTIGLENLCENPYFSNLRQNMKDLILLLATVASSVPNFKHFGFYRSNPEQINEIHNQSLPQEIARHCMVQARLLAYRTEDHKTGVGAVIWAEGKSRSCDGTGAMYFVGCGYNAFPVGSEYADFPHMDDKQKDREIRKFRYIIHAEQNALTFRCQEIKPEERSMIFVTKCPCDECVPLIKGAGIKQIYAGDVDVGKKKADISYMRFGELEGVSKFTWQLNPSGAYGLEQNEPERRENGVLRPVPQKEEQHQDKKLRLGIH

compound: Cc1nc(Nc2ncc(C(=O)Nc3c(C)cccc3Cl)s2)cc(N2CCN(CCO)CC2)n1 [dasatinib]; assay: log2 fold change of tryptic peptide abundance, ligand vs vehicle (limited proteolysis) (log2 ratio); higher = more trypsin-susceptible (destabilized); conditions: ligand concentration: 5 uM; sample: K562 cleared lysate

Row | Target | log2 fold change
1 | KIAA0586 (peptide sequence: LPDLPQNSVK, peptide start residue: 449) (UniProt Q9BVV6) | 0.284
2 | HELZ2 (peptide sequence: LVLAGDHMQVTPR, peptide start residue: 690) (UniProt Q9BYK8) | -0.208
3 | WDR18 (peptide sequence: HLLGAEHGDEPR, peptide start residue: 342) (UniProt Q9BV38) | -0.251
4 | BCL2L13 (peptide sequence: KPVPPSEGK, peptide start residue: 432) (UniProt Q9BXK5) | 0.411
5 | UBXN6 (peptide sequence: EAILLHFSTDPVAASIMK, peptide start residue: 143) (UniProt Q9BZV1) | 0.196
6 | TWSG1 (peptide sequence: ALCASDVSK, peptide start residue: 29) (UniProt Q9GZX9) | 0.185
7 | MRPL32 (peptide sequence: NNIDVCPECGHLK, peptide start residue: 105) (UniProt Q9BYC8) | 0.307
8 | UniProt Q9BVC4 (peptide sequence: FWQAHSGICTR, peptide start residue: 26) | -0.0832
9 | UniProt Q9BYG3 (peptide sequence: VHKELFK, peptide start residue: 126) | 0.336
10 | BRIP1 (peptide sequence: THEIEIK, peptide start residue: 1226) (UniProt Q9BX63) | -0.391
11 | TBC1D10A (peptide sequence: AWQYLSGGK, peptide start residue: 120) (UniProt Q9BXI6) | 0.327
12 | C1orf50 (peptide sequence: LTVIAEQIQHLQEQAR, peptide start residue: 78) (UniProt Q9BV19) | 0.153
13 | UniProt Q9H1B7 (peptide sequence: SRFEYPPPPVSLGSSSHTAR, peptide start residue: 169) | 0.37
14 | API5 (peptide sequence: RLAAQFIPK, peptide start residue: 43) (UniProt Q9BZZ5) | 0.0933
15 | ILKAP (peptide sequence: NGSEELVEKK, peptide start residue: 87) (UniProt Q9H0C8) | -0.513
16 | SGPP1 (peptide sequence: NGLAAELGPASPR, peptide start residue: 91) (UniProt Q9BX95) | -0.277
17 | CDADC1 (peptide sequence: HGPLGDNEER, peptide start residue: 66) (UniProt Q9BWV3) | 0.00932

In another format: results already given.
TBC1D10A (peptide sequence: AWQYLSGGK, peptide start residue: 120) (UniProt Q9BXI6)
  log2 fold change: 0.327
C1orf50 (peptide sequence: LTVIAEQIQHLQEQAR, peptide start residue: 78) (UniProt Q9BV19)
  log2 fold change: 0.153
